Measurements reported in PubChem BioAssay AID1224830 (NIAID, 2016)

Aim: 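Regulators of TLR4 signalling towards TNF-alpha in macrophage-like cells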 (primary screen)
Cells: human THP-1 monocytic leukaemia cells, TNF dual-luciferase reporter clone, PMA-differentiated to macrophage-like cells
Knock-down reagent: siRNA pool against human genes, 50 nM
Time to read-out: LPS for 4 h, given about 3 days after siRNA transfection
Treatment: bacterial LPS (TLR4 ligand), 10 ng/ml
Detection: 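Ratio of firefly to renilla light, scaled to the plate median and expressed as a robust z-score per replicate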
Scale: TNF reporter robust z-score: higher = stronger TNF reporter response to LPS
Hit rule: 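a well is active when its z-score exceeds 2.8 or falls below -1.5; control wells carry no call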
Shown is an unselected part of about 18,000 deposited reagents. Of all reagents, about 2,900 (16%) are marked active. 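Calls are made per well; low scores hint the gene aids the LPS response, high scores that it dampens it.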 Repeated entries: four replicate wells of each siRNA pool.

For PPCDC, what does the deposit list?
TNF reporter robust z-score: 1.24; outcome: inactive

With PPCDC, how do the results read?
TNF reporter robust z-score: 1.11; outcome: inactive

For PPCDC, how do the results read?
TNF reporter robust z-score: 0.91; outcome: inactive

With PPCDC, how do the results read?
TNF reporter robust z-score: 1.14; outcome: inactive

For ZDHHC18, what does the deposit list?
TNF reporter robust z-score: -0.54; outcome: inactive

What is on record for ZDHHC18?
TNF reporter robust z-score: -0.18; outcome: inactive

With ZDHHC18, what was measured?
TNF reporter robust z-score: -0.63; outcome: inactive

What did the screen give for ZDHHC18?
TNF reporter robust z-score: 0.02; outcome: inactive

What did the screen give for BPTF?
TNF reporter robust z-score: -0.25; outcome: inactive

What did the screen give for BPTF?
TNF reporter robust z-score: 0.91; outcome: inactive

What is on record for BPTF?
TNF reporter robust z-score: -0.23; outcome: inactive

What did the screen give for BPTF?
TNF reporter robust z-score: -0.06; outcome: inactive

With ZMYND8, what was measured?
TNF reporter robust z-score: -0.62; outcome: inactive

For ZMYND8, what was measured?
TNF reporter robust z-score: -0.92; outcome: inactive

What is on record for ZMYND8?
TNF reporter robust z-score: -0.77; outcome: inactive

For ZMYND8, how do the results read?
TNF reporter robust z-score: -0.38; outcome: inactive

With TEAD4, what does the deposit list?
TNF reporter robust z-score: -0.27; outcome: inactive

With TEAD4, how do the results read?
TNF reporter robust z-score: -0.07; outcome: inactive

With TEAD4, how do the results read?
TNF reporter robust z-score: -0.03; outcome: inactive

What is on record for TEAD4?
TNF reporter robust z-score: -0.23; outcome: inactive

What did the screen give for POLR3B?
TNF reporter robust z-score: 3.32; outcome: active

With POLR3B, what was measured?
TNF reporter robust z-score: 0.39; outcome: inactive

For POLR3B, what was measured?
TNF reporter robust z-score: -0.95; outcome: inactive

How did the screen score POLR3B?
TNF reporter robust z-score: 2.81; outcome: active

For HAS1, what was measured?
TNF reporter robust z-score: 0.19; outcome: inactive

For HAS1, what does the deposit list?
TNF reporter robust z-score: 0.83; outcome: inactive

Which result is listed for HAS1?
TNF reporter robust z-score: 1.13; outcome: inactive

What did the screen give for HAS1?
TNF reporter robust z-score: 1.28; outcome: inactive

What did the screen give for FZD9?
TNF reporter robust z-score: 0.78; outcome: inactive

How did the screen score FZD9?
TNF reporter robust z-score: 1.5; outcome: inactive

For FZD9, what was measured?
TNF reporter robust z-score: 1.3; outcome: inactive

For FZD9, how do the results read?
TNF reporter robust z-score: 0.84; outcome: inactive

With CNGB1, what does the deposit list?
TNF reporter robust z-score: 1.06; outcome: inactive

With CNGB1, how do the results read?
TNF reporter robust z-score: -0.04; outcome: inactive

With CNGB1, how do the results read?
TNF reporter robust z-score: -1.29; outcome: inactive

What is on record for CNGB1?
TNF reporter robust z-score: -0.71; outcome: inactive

What did the screen give for MSRB2?
TNF reporter robust z-score: -1.14; outcome: inactive

Which result is listed for MSRB2?
TNF reporter robust z-score: -0.89; outcome: inactive

For MSRB2, what does the deposit list?
TNF reporter robust z-score: -0.62; outcome: inactive

For MSRB2, what was measured?
TNF reporter robust z-score: 0.04; outcome: inactive

For IGSF9, what was measured?
TNF reporter robust z-score: -0.45; outcome: inactive

For IGSF9, what does the deposit list?
TNF reporter robust z-score: -0.24; outcome: inactive

How did the screen score IGSF9?
TNF reporter robust z-score: -0.51; outcome: inactive

What did the screen give for IGSF9?
TNF reporter robust z-score: 0.24; outcome: inactive

With NSUN5P2, what does the deposit list?
TNF reporter robust z-score: -0.08; outcome: inactive

For NSUN5P2, what does the deposit list?
TNF reporter robust z-score: 1.39; outcome: inactive

With NSUN5P2, how do the results read?
TNF reporter robust z-score: 0.17; outcome: inactive

For NSUN5P2, what was measured?
TNF reporter robust z-score: 0.18; outcome: inactive
